Literature values, collected in patent publication US11129897B2, “Fast-acting plant-based medicinal compounds and nutritional supplements” (RECEPTOR HOLDINGS, INC., priority 2016, dated 2021).

Conditions: versus molecule without SNAC; in words; cited from earlier work

CC(C)c1c(C(=O)Nc2ccccc2)c(-c2ccccc2)c(-c2ccc(F)cc2)n1CC[C@@H](O)C[C@@H](O)CC(=O)O [atorvastatin]
absorption when co-administered with an N-acylated fatty amino acid (e.g., SNAC): improved absorption
